These are yes or no findings as the source states them, for the method shown.
Biological target: MBP:RGA5_HMAm1m2 (rice (Oryza sativa)) (UniProt F7J0N2)
Assay: SEC; both purified

Amino acid sequences for entries named in this document (tags omitted). A change or cut given only in a name is not applied to a line headed by its entry. Chains listed by the source or under a name are the forms on record and can include a tag or linker.
MBP:RGA5_HMAm1m2 (F7J0N2, form named): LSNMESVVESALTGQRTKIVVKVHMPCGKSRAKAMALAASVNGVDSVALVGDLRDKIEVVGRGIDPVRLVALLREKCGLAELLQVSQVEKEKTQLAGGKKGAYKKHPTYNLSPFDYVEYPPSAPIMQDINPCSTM

“MBP:RGA5_HMAm1m2 (from UniProt F7J0N2) (domain or fragment)” was tested, and the binding was “no binding (tested: about 2 mg/mL)”.

— publication PMC8938504
